Data as given in PubChem BioAssay AID1508588 (Peter MacCallum Cancer Centre, 2020)

Assay: 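Knock-downs boosting vemurafenib effects on melanoma cell growth or lactate release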 (primary screen)
Cells: human WM266.4 melanoma cells (BRAF V600 mutant)
Knock-down reagent: siRNA pool against human genes, 40 nM
Timing: 96 h from transfection to read-out
Challenge: vemurafenib 300 nM (about IC25), added 48 h after transfection, for 48 h; comparison arm got DMSO vehicle only
Measurement: 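Cell gain (DAPI nuclei at end minus before drug, mean of two replicates) and medium lactate by absorbance per cell, both as ratio to non-targeting siRNA, also grouped into fold-change classes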
Scale: cell gain with vemurafenib: higher = more cell gain than with non-targeting siRNA; lactate per cell with vemurafenib: higher = more lactate made per cell
Rule for the call: 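a knock-down counts as enhancing when its fold-change classes with vehicle and with vemurafenib, taken together, show a stronger drug effect on cell gain or lactate per cell; exact class pairs not stated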
Meaning of the calls: active = enhances vemurafenib effect; inactive = no enhancement seen
The deposit covers about 18,000 reagents; this is a random part of them. 790 of all reagents (4.4%) were called active. 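Calls rest on a combination of fold-change classes in drug and vehicle arms, not all shown here.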 The numbers tell different reagents against one gene apart. Some reagents were tested in more than one well and are listed for each.

no.	gene	reagent no.	cell gain with vemurafenib	lactate per cell with vemurafenib	call
1	WDR18 (GeneID 57418)	1	0.72	1.04	inactive
2	RND3 (GeneID 390)	1	0.4	2.23	inactive
3	OR10H2 (GeneID 26538)	1	0.99	0.56	inactive
4	NTF4 (GeneID 4909)	1	0.48	1.4	inactive
5	GAPDHS (GeneID 26330)	1	0.12	0.67	inactive
6	CXCL13 (GeneID 10563)	1	0.87	0.62	inactive
7	ING3 (GeneID 54556)	1	0.22	0.28	active
8	BMP15 (GeneID 9210)	1	0.62	1.29	inactive
9	TMEM184A (GeneID 202915)	1	0.57	0.31	active
10	ABCB11 (GeneID 8647)	1	0.47	1.4	inactive
11	SERPINB12 (GeneID 89777)	1	0.72	1.07	inactive
12	GUCA2B (GeneID 2981)	1	1.06	0.51	inactive
13	EPN2 (GeneID 22905)	1	1.03	0.97	inactive
14	INMT (GeneID 11185)	1	0.32	2.09	inactive
15	TIMM44 (GeneID 10469)	1	0.24	0.26	inactive
16	RPS8 (GeneID 6202)	1	0.03	0.53	inactive
17	CXCL14 (GeneID 9547)	1	0.91	0.78	inactive
18	PLAGL1 (GeneID 5325)	1	0.09	0.32	active
19	TAOK2 (GeneID 9344)	1	0.78	1.01	inactive
20	ATP5F1D (GeneID 513)	1	0.58	2.16	inactive
21	C1QTNF3 (GeneID 114899)	1	1.49	0.65	inactive
22	JKAMP (GeneID 51528)	1	0.48	0.8	inactive
23	ETFA (GeneID 2108)	1	0.34	1.02	inactive
24	IFNA13 (GeneID 3447)	1	0.5	1.81	inactive
25	CDX2 (GeneID 1045)	1	0.83	0.89	inactive
26	BID (GeneID 637)	1	1.51	0.56	inactive
27	SLC48A1 (GeneID 55652)	1	0.26	0.54	inactive
28	SPAG11A (GeneID 653423)	1	0.59	1.54	inactive
29	CLUL1 (GeneID 27098)	1	1.14	0.86	inactive
30	RPL7 (GeneID 6129)	1	-0.11	1.16	inactive
31	TMIGD2 (GeneID 126259)	1	0.62	1.8	inactive
32	YIPF3 (GeneID 25844)	1	0.46	1.07	inactive
33	MORC2 (GeneID 22880)	1	0.68	0.8	inactive
34	DEFB110 (GeneID 245913)	1	0.55	0.99	inactive
35	DEFB110 (GeneID 245913)	2	0.6	0.22	inactive
36	OR8B3 (GeneID 390271)	1	1.26	0.67	inactive
37	SSX2 (GeneID 6757)	1	0.51	0.68	inactive
38	LCE2A (GeneID 353139)	1	0.61	1.33	inactive
39	STX2 (GeneID 2054)	1	1.35	0.63	inactive
40	PSORS1C1 (GeneID 170679)	1	0.94	0.91	inactive
41	RETREG3 (GeneID 162427)	1	0.22	1.75	inactive
42	PRICKLE1 (GeneID 144165)	1	1.05	0.55	inactive
43	SASH3 (GeneID 54440)	1	0.17	0.87	inactive
44	IRAK1 (GeneID 3654)	1	1.05	0.7	inactive
45	RETSAT (GeneID 54884)	1	0.31	0.55	inactive
46	H2AC20 (GeneID 8338)	1	0.89	0.92	inactive
47	TAX1BP3 (GeneID 30851)	1	0.57	0.78	inactive
48	SCARF1 (GeneID 8578)	1	0.32	0.62	inactive
49	GABRP (GeneID 2568)	1	0.57	1.62	inactive
50	MON2 (GeneID 23041)	1	0.98	0.78	inactive
51	NDRG1 (GeneID 10397)	1	0.35	1.7	inactive
52	MCUB (GeneID 55013)	1	0.77	0.68	inactive
53	COQ3 (GeneID 51805)	1	0.25	1.21	inactive
54	CCDC102B (GeneID 79839)	1	0.43	1.66	inactive
55	POT1 (GeneID 25913)	1	0.69	0.54	inactive
56	BRAP (GeneID 8315)	1	0.71	1.22	inactive
57	GPSM1 (GeneID 26086)	1	0.5	1.12	inactive
58	OR2M5 (GeneID 127059)	1	0.6	0.46	inactive
59	ANKRD27 (GeneID 84079)	1	0.56	0.64	inactive
60	S100A13 (GeneID 6284)	1	0.35	1.08	inactive
61	GIMAP4 (GeneID 55303)	1	0.17	1.34	inactive
62	NPAS1 (GeneID 4861)	1	0.93	0.81	inactive

Reprinted from the entries so far, 11 entries:
no.	gene	reagent no.	cell gain with vemurafenib	lactate per cell with vemurafenib	call
33	MORC2 (GeneID 22880)	1	0.68	0.8	inactive
34	DEFB110 (GeneID 245913)	1	0.55	0.99	inactive
35	DEFB110 (GeneID 245913)	2	0.6	0.22	inactive
36	OR8B3 (GeneID 390271)	1	1.26	0.67	inactive
37	SSX2 (GeneID 6757)	1	0.51	0.68	inactive
38	LCE2A (GeneID 353139)	1	0.61	1.33	inactive
39	STX2 (GeneID 2054)	1	1.35	0.63	inactive
40	PSORS1C1 (GeneID 170679)	1	0.94	0.91	inactive
41	RETREG3 (GeneID 162427)	1	0.22	1.75	inactive
42	PRICKLE1 (GeneID 144165)	1	1.05	0.55	inactive
43	SASH3 (GeneID 54440)	1	0.17	0.87	inactive

More reagents follow.
no.	gene	reagent no.	cell gain with vemurafenib	lactate per cell with vemurafenib	call
63	CCDC125 (GeneID 202243)	1	0.41	0.46	inactive
64	TDRD5 (GeneID 163589)	1	0.65	0.45	inactive
65	TNPO3 (GeneID 23534)	1	0.04	-0.02	active
66	CYP3A4 (GeneID 1576)	1	0.46	1.24	inactive
67	HCN1 (GeneID 348980)	1	0.5	0.76	inactive
68	CAB39 (GeneID 51719)	1	0.67	1.32	inactive
69	BSG (GeneID 682)	1	0.53	0.63	inactive
70	DNAJB7 (GeneID 150353)	1	0.3	0.4	inactive
71	ARF4 (GeneID 378)	1	0.62	1.31	inactive
72	COA1 (GeneID 55744)	1	0.88	0.5	inactive
73	HYCC1 (GeneID 84668)	1	1.08	0.98	inactive
74	RNF128 (GeneID 79589)	1	0.43	0.32	inactive
75	RNF128 (GeneID 79589)	1	0.59	1.64	inactive
76	LGALS13 (GeneID 29124)	1	0.59	1.5	inactive
77	CGAS (GeneID 115004)	1	0.54	0.32	active
78	AIM2 (GeneID 9447)	1	0.87	0.7	inactive
79	MAP3K20 (GeneID 51776)	1	1.37	0.6	inactive
80	ISL2 (GeneID 64843)	1	0.41	0.62	inactive
81	UPP1 (GeneID 7378)	1	0.43	1.87	inactive
82	TOR3A (GeneID 64222)	1	0.29	2.4	inactive
83	CERT1 (GeneID 10087)	1	0.78	0.58	inactive
84	MECOM (GeneID 2122)	1	0.58	1.31	inactive
85	MECOM (GeneID 2122)	2	0.86	0.7	inactive
86	CAD (GeneID 790)	1	0.81	1.36	inactive
87	IFT88 (GeneID 8100)	1	0.82	0.63	inactive
88	WDR5 (GeneID 11091)	1	0.51	1.08	inactive
89	RPP40 (GeneID 10799)	1	0.55	0.7	active
90	FUZ (GeneID 80199)	1	0.63	1.15	inactive
91	OR2B2 (GeneID 81697)	1	0.92	0.45	inactive
92	TFB1M (GeneID 51106)	1	0.52	1.68	inactive
93	MARCHF1 (GeneID 55016)	1	0.35	2.29	inactive
94	KRTAP21-2 (GeneID 337978)	1	0.44	0.98	inactive
95	TENT5C (GeneID 54855)	1	0.52	1.02	inactive
96	SMPX (GeneID 23676)	1	0.66	0.8	inactive
97	MTAP (GeneID 4507)	1	0.7	0.5	inactive
98	MPC2 (GeneID 25874)	1	0.66	0.46	inactive
99	IFT22 (GeneID 64792)	1	0.33	1.26	inactive
100	PMS2 (GeneID 5395)	1	0.93	0.94	inactive
101	MAML3 (GeneID 55534)	1	0.26	1.34	inactive
102	POLDIP2 (GeneID 26073)	1	0.72	0.92	inactive
103	AGXT (GeneID 189)	1	0.17	2.04	inactive
104	KIF18A (GeneID 81930)	1	0.38	1.15	inactive
105	RIMS3 (GeneID 9783)	1	0.52	1.32	inactive
106	MIER2 (GeneID 54531)	1	0.46	1.42	inactive
107	POLR1E (GeneID 64425)	1	0.7	0.63	active
